Assay results reported in patent US20220332811A1 (NOVAROCK BIOTHERAPEUTICS, published 2022).
Where a chain is given by its changes, count along the chain named. These are yes or no findings as the source states them, for the method shown. Some results given as binding are weak or reduced against the parent protein; the word gives no strength.

By UniProt entry, the sequences of proteins in these tests, tags left out. Where a name states a change or a piece, a line headed by the entry shows the natural chain unless it says otherwise.
UniProt Q9NPF7: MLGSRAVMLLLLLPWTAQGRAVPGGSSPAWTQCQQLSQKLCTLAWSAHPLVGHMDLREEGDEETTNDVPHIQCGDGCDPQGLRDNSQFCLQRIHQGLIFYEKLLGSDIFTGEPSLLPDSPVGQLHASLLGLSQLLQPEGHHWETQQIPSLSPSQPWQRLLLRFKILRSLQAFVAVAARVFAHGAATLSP
UniProt P43432: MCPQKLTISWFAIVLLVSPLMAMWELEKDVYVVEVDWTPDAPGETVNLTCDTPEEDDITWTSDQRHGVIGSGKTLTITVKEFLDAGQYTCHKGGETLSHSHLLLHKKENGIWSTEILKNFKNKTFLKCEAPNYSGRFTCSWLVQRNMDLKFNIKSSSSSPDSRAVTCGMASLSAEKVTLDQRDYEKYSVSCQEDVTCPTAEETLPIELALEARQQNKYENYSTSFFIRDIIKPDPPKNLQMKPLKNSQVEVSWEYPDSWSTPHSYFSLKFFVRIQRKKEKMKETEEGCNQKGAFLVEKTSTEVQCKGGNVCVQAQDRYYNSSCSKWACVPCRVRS

B1: Hu-6 18006B* (recombinant mIgG2a) (antibody, V domains shown)
VH: QVQLVQSGAEVKKPGASVKVSCKTSGYTFTYYGISWVRQAPGQGLEWMGLISAYNGNTNYGQKVQGRVTMTTDTSTSTAYMELRSLRSDDTAVYYCVTENINWRDAFDIWGQGTMVTVSS
VL: EIVLTQSPDFQSVTPKEKVTITCRASQTIGSSLHWYQQKPDQSPKLLIKYASQSISGVPSRFSGSGSGTDFTLTINSLEAEDAAAYYCHQSSSLPYTFGQGTKLEIK
B2: Hu-4 18006B (purified from hybridoma) (antibody, IgG2c, V domains shown)
VH: QVHLVQSGAEVKKPGASVKVSCKASGYTFSSYGINWVRQAPGQGLEWMGWISAYSGNTDYSQHLQGRVTMTTDTSTNTAYMELRSLRSDDTAVYYCARASANWYDYFDPWGQGTLVTVSS
VL: B1 VL with S31G, K49T, I55F, N76H, A85T, S93I
B3: Hu-4 18006B* (recombinant, mIgG2a) (antibody, V domains shown)
VH: B2 VH
VL: B1 VL with S31G, K49T, I55F, N76H, A85T, S93I
B4: Hu-2 18006B (antibody, V domains shown)
VH: QVQLVQSGAEVKKPGASVKVSCKASGYTFTTYGISWVRQAPGQGLEWMGWISAYNGNTKYAQKLQGRVTMTTDTSTSTAYMELRSLRSDDTAVYYCAREWRAFYYYGLDVWGQGTTVTVSS
VL: DIVMTQTPLSSPVTLGQPASISCRSSQSLEHSDGNTYLSWLQQRPNQPPRLLIYKVSNRFSGVPDRFSGSGAGTDFTLKISRVEAEDVGVYYCTQATQFPLTFGGGTKVEIK
notes: Purified from hybridoma (Trianni mice); also called H-2 1800B (mIgG1)
B5: Hu-4 18006B** (recombinant, hIgG4) (antibody, V domains shown)
VH: B2 VH
VL: B1 VL with S31G, K49T, I55F, N76H, A85T, S93I
B6: Hu-5 18006B (antibody, IgG2b, V domains shown)
VH: QLQLQESGPGLVKPSETLSLTCTVSGGSISSSSFYWGWIRQPPGKGLEWIGSIYYSGSTYYNPSLKSRVTISVDTSKNQFSLKLSSVTAADTAVYFCARHGVRGVIPHFDYWGQGTLVTVSS
VL: QTVLTQEPSFSVSPGGTVTLTCGLNSGSVSTIYYPSWYQQTPGQAPRALIYSTNTRSSGVPDRFSGSILGNKAALTITGAQADDESDYYCVLFLGSGLVFGGGTKLTVL
notes: Purified from hybridoma

Target: T1, human p19/mouse p40 heterodimer protein (human; mouse) (UniProt Q9NPF7+P43432)
Assay: ELISA

| binding | Binder |
| --- | --- |
| binds | B1 |
| binds | B2 |
| binds | B3 |
| binds | B4 |

Target: T1, human p19/mouse p40 heterodimer protein (human; mouse)
Assay: ELISA; antigen coated directly on plate

| binding | Binder |
| --- | --- |
| binds | B1 |
| binds | B2 |
| binds | B3 |
| binds | B4 |

Target: T1, human p19/mouse p40 heterodimer protein (human; mouse)
Assay: SPR (BIAcore); antibody captured on anti-Fc chip, antigen injected

| binding | Binder |
| --- | --- |
| binds | B5 |
| binds | B1 |
| binds | B3 |
| binds | B6 |
| binds | B4 |

Target: T1, human p19/mouse p40 heterodimer protein (human; mouse)
Assay: SPR (BIAcore)

| binding | Binder |
| --- | --- |
| binds | B5 |
| binds | B1 |
| binds | B3 |
| binds | B6 |
| binds | B4 |
